{"source": "the supplement of paper PMC6411743", "assay_in_all_cases": "NP40-soluble protein abundance relative to vehicle (solubility fold change) (ratio); higher = more soluble protein in presence of AMP-PNP", "key": {"[1]": {"target": "T1, UniProt O95379-3|O95379-4", "T1 sequence (whole entry)": "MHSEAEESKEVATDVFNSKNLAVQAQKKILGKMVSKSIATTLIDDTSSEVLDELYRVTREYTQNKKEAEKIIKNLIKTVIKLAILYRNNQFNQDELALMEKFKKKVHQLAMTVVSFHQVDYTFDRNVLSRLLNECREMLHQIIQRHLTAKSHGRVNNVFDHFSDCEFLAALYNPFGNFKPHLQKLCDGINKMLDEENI", "method_in_brief": "(§1)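 Jurkat crude lysate prepared with a Dounce homogeniser was treated at eight concentrations spanning 0.1 to 10 mM, 10 min at room temperature then 3 min at 37 °C. Solubilisation with 0.8% NP40 and benzonase and ultracentrifugation preceded TMT labelling of the supernatant for LC-MS/MS. Fold change against the detergent-processed vehicle was determined per replicate from vsn-normalised intensities, across three independent experiments.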"}, "[2]": {"target": "T2, UniProt O95479 and related entries", "T2 sequence (whole entry)": "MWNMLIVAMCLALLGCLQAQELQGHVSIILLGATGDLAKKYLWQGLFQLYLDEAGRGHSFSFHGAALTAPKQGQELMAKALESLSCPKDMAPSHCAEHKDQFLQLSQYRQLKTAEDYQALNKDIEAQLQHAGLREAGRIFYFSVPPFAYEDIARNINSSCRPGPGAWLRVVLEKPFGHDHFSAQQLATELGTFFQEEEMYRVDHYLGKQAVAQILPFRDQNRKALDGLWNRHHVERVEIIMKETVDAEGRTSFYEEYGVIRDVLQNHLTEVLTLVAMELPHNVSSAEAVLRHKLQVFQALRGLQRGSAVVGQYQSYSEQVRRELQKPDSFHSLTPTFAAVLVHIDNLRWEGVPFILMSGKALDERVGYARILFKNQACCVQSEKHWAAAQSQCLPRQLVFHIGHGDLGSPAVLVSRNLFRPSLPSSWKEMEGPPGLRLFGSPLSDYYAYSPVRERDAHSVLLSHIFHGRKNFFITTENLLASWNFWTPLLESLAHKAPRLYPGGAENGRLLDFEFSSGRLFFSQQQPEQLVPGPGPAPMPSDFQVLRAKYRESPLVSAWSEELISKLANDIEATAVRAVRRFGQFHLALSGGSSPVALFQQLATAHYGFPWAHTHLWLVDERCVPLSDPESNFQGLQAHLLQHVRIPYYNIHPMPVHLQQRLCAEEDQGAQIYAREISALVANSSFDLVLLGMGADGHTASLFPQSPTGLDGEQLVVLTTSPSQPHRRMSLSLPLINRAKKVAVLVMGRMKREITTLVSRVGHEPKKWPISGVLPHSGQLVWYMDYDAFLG", "method_in_brief": "as §1"}, "[3]": {"target": "T3, UniProt O95487 and related entries", "T3 sequence (whole entry)": "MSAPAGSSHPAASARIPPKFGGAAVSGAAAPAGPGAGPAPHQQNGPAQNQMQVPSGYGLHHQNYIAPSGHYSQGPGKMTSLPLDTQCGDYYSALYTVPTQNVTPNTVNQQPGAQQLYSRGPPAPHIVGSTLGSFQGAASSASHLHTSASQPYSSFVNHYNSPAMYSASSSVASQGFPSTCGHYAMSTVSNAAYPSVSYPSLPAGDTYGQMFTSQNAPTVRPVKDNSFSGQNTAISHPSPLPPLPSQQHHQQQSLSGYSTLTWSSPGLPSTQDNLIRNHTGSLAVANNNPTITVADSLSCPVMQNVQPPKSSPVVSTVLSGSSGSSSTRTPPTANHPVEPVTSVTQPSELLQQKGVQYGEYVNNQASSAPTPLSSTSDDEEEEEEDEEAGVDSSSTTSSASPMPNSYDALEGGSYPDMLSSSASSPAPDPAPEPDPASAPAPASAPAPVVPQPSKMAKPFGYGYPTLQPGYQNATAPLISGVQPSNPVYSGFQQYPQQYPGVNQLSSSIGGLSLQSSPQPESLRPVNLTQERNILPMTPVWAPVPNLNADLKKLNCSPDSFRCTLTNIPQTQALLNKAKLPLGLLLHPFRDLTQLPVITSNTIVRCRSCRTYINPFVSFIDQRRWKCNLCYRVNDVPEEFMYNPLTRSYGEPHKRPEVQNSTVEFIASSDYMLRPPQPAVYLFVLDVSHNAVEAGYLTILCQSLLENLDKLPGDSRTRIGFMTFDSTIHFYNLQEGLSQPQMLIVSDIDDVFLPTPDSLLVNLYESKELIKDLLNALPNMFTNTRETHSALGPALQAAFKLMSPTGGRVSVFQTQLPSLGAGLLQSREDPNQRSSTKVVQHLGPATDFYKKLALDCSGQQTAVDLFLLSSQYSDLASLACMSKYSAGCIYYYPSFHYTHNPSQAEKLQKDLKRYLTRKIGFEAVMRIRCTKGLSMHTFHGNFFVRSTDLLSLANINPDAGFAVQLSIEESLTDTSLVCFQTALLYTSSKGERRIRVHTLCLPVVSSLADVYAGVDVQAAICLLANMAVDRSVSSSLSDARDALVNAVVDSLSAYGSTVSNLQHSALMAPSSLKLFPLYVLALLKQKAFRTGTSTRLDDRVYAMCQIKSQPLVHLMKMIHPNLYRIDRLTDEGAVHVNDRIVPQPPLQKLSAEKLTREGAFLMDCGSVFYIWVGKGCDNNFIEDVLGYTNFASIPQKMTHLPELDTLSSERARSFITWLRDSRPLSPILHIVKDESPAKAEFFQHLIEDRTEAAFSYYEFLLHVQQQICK", "method_in_brief": "as §1"}, "UniProt O95684-2": {"target": "T4, UniProt O95684-2", "T4 sequence (whole entry)": "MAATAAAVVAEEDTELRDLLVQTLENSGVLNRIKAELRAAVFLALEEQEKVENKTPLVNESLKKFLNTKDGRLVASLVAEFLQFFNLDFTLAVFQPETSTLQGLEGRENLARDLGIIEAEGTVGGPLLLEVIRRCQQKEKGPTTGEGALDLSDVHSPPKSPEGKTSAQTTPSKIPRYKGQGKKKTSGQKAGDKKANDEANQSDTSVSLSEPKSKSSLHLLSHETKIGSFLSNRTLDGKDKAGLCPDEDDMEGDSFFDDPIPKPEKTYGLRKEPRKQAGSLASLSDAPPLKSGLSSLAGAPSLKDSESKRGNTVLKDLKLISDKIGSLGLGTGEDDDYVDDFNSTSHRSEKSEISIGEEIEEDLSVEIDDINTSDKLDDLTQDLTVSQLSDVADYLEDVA", "method_in_brief": "as §1"}, "VAMP5": {"target": "T5, VAMP5 (UniProt O95183)", "T5 sequence (whole entry)": "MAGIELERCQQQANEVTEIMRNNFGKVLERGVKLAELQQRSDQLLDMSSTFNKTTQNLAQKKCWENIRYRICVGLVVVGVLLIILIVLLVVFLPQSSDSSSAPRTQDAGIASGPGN", "method_in_brief": "as §1"}}, "note": "± gives the standard deviation of the averaged measurements. This is a selection; strong and weak results do not stand in their true shares.", "data": [{"smiles": "Nc1ncnc2c1ncn2[C@@H]1O[C@H](COP(=O)(O)OP(=O)(O)NP(=O)(O)O)[C@@H](O)[C@H]1O", "note": "[adenylyl imidodiphosphate]", "values": [{"measurement": "NP40-soluble protein abundance", "setting": "[1]; concentration: 6mM", "value": "0.998 ± 0.026"}, {"measurement": "NP40-soluble protein abundance", "setting": "[1]; concentration: 8mM", "value": "1 ± 0.06"}, {"measurement": "NP40-soluble protein abundance", "setting": "[1]; concentration: 10mM", "value": "0.938 ± 0.056"}, {"measurement": "NP40-soluble protein abundance", "setting": "[2]; concentration: 1mM", "value": "0.988 ± 0.021"}, {"measurement": "NP40-soluble protein abundance", "setting": "[2]; concentration: 2mM", "value": "0.978 ± 0.058"}, {"measurement": "NP40-soluble protein abundance", "setting": "[2]; concentration: 4mM", "value": "1 ± 0.028"}, {"measurement": "NP40-soluble protein abundance", "setting": "[2]; concentration: 6mM", "value": "0.965 ± 0.031"}, {"measurement": "NP40-soluble protein abundance", "setting": "[2]; concentration: 8mM", "value": "0.963 ± 0.039"}, {"measurement": "NP40-soluble protein abundance", "setting": "[2]; concentration: 10mM", "value": "0.97 ± 0.033"}, {"measurement": "NP40-soluble protein abundance", "setting": "[3]; concentration: 1mM", "value": "1.016 ± 0.0092"}, {"measurement": "NP40-soluble protein abundance", "setting": "[3]; concentration: 2mM", "value": "1.01 ± 0.04"}, {"measurement": "NP40-soluble protein abundance", "setting": "[3]; concentration: 4mM", "value": "1.04 ± 0.025"}, {"measurement": "NP40-soluble protein abundance", "setting": "[3]; concentration: 6mM", "value": "1.01 ± 0.021"}, {"measurement": "NP40-soluble protein abundance", "setting": "[3]; concentration: 8mM", "value": "1.033 ± 0.0055"}, {"measurement": "NP40-soluble protein abundance", "setting": "[3]; concentration: 10mM", "value": "1.03 ± 0.019"}, {"measurement": "NP40-soluble protein abundance", "setting": "UniProt O95684-2; concentration: 1mM", "value": "1.01 ± 0.019"}, {"measurement": "NP40-soluble protein abundance", "setting": "UniProt O95684-2; concentration: 2mM", "value": "1.06 ± 0.083"}, {"measurement": "NP40-soluble protein abundance", "setting": "UniProt O95684-2; concentration: 4mM", "value": "1 ± 0.013"}, {"measurement": "NP40-soluble protein abundance", "setting": "UniProt O95684-2; concentration: 6mM", "value": "0.973 ± 0.024"}, {"measurement": "NP40-soluble protein abundance", "setting": "UniProt O95684-2; concentration: 8mM", "value": "0.945 ± 0.025"}, {"measurement": "NP40-soluble protein abundance", "setting": "UniProt O95684-2; concentration: 10mM", "value": "0.965 ± 0.053"}, {"measurement": "NP40-soluble protein abundance", "setting": "VAMP5; concentration: 1mM", "value": "1.02 ± 0.044"}, {"measurement": "NP40-soluble protein abundance", "setting": "VAMP5; concentration: 2mM", "value": "1.03 ± 0.048"}, {"measurement": "NP40-soluble protein abundance", "setting": "VAMP5; concentration: 4mM", "value": "1.03 ± 0.051"}, {"measurement": "NP40-soluble protein abundance", "setting": "VAMP5; concentration: 6mM", "value": "0.991 ± 0.029"}, {"measurement": "NP40-soluble protein abundance", "setting": "VAMP5; concentration: 8mM", "value": "1.01 ± 0.045"}, {"measurement": "NP40-soluble protein abundance", "setting": "VAMP5; concentration: 10mM", "value": "0.993 ± 0.025"}]}]}
